Patent publication US8562975B2, “Method for stabilizing reduced coenzyme Q10 and composition therefor” (Kaneka Corporation, priority 2002, dated 2013)
At least one compound was matched to its structure with a doubt left.

Test: Storage stability of reduced coenzyme Q10 compositions in the air at 40° C., light-shielded, 3 days (HPLC weight ratio)
Type: physicochemical
Settings: Table 1, crystals of Production Example 1 at 6% by weight (Compar. Ex. 1: crystals alone)

Question: With `COc1c(O)c(C)c(C/C=C(\C)CC/C=C(\C)CC/C=C(\C)CC/C=C(\C)CC/C=C(\C)CC/C=C(\C)CC/C=C(\C)CC/C=C(\C)CC/C=C(\C)CCC=C(C)C)c(O)c1OC` [Compar. Ex. 1, reduced coenzyme Q10] as the molecule, how does the “Reduced coenzyme Q10/oxidized coenzyme Q10 weight ratio” value read?
Answer: 75.0/25.0
